# Experimental data: PubChem BioAssay AID504784 (Drosophila RNAi Screening Center, 2011)
# Aim: 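Search for regulators of lipid droplet storage in oleate-fed fly cells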 (primary screen)
# Cell system: Drosophila Kc167 embryonic cells
# Reagents: long dsRNA against Drosophila genes, about 250 ng dsRNA per well
# Duration: 4 days
# Conditions: cells fed 400 µM oleic acid bound to BSA
# Read-out: 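Microscope images give a droplet-to-nucleus area ratio, taken as log and converted to a screen-wide B-score; higher values mean greater lipid storage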
# Scale: droplet/nuclear area B-score: higher = more stored lipid (overstorage)
# In all, the deposit lists about 17,000 reagents; shown is an unselected part of those that have a named target and a result. 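Each column is one replicate's B-score; the combined score over replicates was not deposited, so single values may mislead.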
Target gene,DRSC id,"droplet/nuclear area B-score, replicate 1","droplet/nuclear area B-score, replicate 2","droplet/nuclear area B-score, replicate 3"
Cys,DRSC16637,-0.198,-2.37,
CG33630,DRSC14546,-2.04,-0.446,
CG7309,DRSC03045,-1.16,-0.181,
ogre,DRSC18809,-0.422,-0.191,-1.53
CG15025,DRSC15031,-0.91,0.676,
CG31751,DRSC02464,-1.8,-1.05,
CG31751,DRSC02465,-2.41,1.87,
Coq6,DRSC03040,-1.43,-1.04,
Pym,DRSC22492,-0.256,0.0569,
Pym,DRSC23017,1.3,-0.0616,
U2af50,DRSC20297,-2,-1.78,-0.0363
U2af50,DRSC22867,-2.56,-2.25,
CG32262,DRSC08165,-0.0796,0.752,
CG14277,DRSC02380,0.714,0.632,
GCS1,DRSC19744,-0.171,0.243,-0.157
CG17199,DRSC15192,0.807,0.551,
CG18088,DRSC02654,0.00603,0.197,
Osi19,DRSC12569,2.77,2.4,
CG13829,DRSC14679,0.166,0.432,
CG7294,DRSC03041,0.124,3.51,
CG42542,DRSC15549,-0.438,-1.68,
CG42542,DRSC22264,0.167,1.33,
CG11865,DRSC01872,-0.298,0.0122,
CG33271,DRSC10583,3.39,2.27,
meru,DRSC09400,0.542,1.38,
meru,DRSC09899,-4.78,-5.08,
meru,DRSC10215,-0.00508,-0.135,

The list goes on, starting with the last 6 of the part before.
Target gene,DRSC id,"droplet/nuclear area B-score, replicate 1","droplet/nuclear area B-score, replicate 2","droplet/nuclear area B-score, replicate 3"
CG42542,DRSC22264,0.167,1.33,
CG11865,DRSC01872,-0.298,0.0122,
CG33271,DRSC10583,3.39,2.27,
meru,DRSC09400,0.542,1.38,
meru,DRSC09899,-4.78,-5.08,
meru,DRSC10215,-0.00508,-0.135,
CG14693,DRSC14916,-0.639,-1.13,
Spn28B,DRSC02982,-1.08,-2.14,0.118
Nup62,DRSC06970,-2.33,-1.34,
mRpL50,DRSC11015,2.71,-1.2,1.73
Sam-S,DRSC00758,-0.0664,0.102,
AGO3,DRSC21386,-1.1,1.1,
CG43980,DRSC11500,0.0338,1.93,
CG43980,DRSC11646,0.201,0.228,
sli,DRSC07684,-0.466,0.572,
CG10137,DRSC02014,-1.96,-2.35,
CG10137,DRSC02015,0.00239,0.502,
CG18335,DRSC06723,-0.87,0.00673,
CG4372,DRSC04466,0.539,-0.19,
CG31296,DRSC13092,-0.684,0.147,
LSm3,DRSC15920,0.0457,-1.47,
S-Lap4,DRSC10957,-0.104,0.44,
CG17752,DRSC15262,2.66,0.825,
cup,DRSC03516,-0.793,0.339,
hbt,DRSC02503,1.25,3.16,
hbt,DRSC23270,-0.000145,0.362,
Tsp96F,DRSC14147,-2,0.681,
Cont,DRSC12149,-0.0701,0.0632,-2.08
CG3511,DRSC04382,-2.25,-1.3,
IntS11,DRSC15407,-0.219,-0.688,
Sec13,DRSC14144,-0.97,0.13,
Ykt6,DRSC17970,1.62,1.05,-0.187
GABA-B-R3,DRSC00561,-0.839,-0.579,
CG18810,DRSC02701,0.468,-0.095,
CG31781 (retired record),DRSC02431,1.07,1.55,
CG31781 (retired record),DRSC02432,-0.222,0.411,
